Some of the results follow. Values are raw readings; no control value is given beside them.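 In the initial screen, polymyxin B was used at a concentration that permeabilizes Salmonella's outer membrane but not its inner membrane. Maximum growth was set by DMSO wells with or without polymyxin B. Since plates varied, data were ranked per plate, and compounds giving the lowest OD600 advanced as hits.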
System: Salmonella enterica serovar Typhimurium SL1344
Experiment: bacterial growth OD600 after 18 h with compound and polymyxin B; higher = more bacterial growth (less inhibition)
Conditions: 50 µM, Mueller-Hinton broth

SMILES	bacterial growth OD600 (polymyxin B 1 µg/mL)	bacterial growth OD600 (polymyxin B 0.75 µg/mL)
O=C(CCC1CCCN(C(=O)c2ccc(Cl)s2)C1)NC1CC1 (stereo unspecified)	0.999	
Cc1nc(CN2CCN(C(=O)Cn3nnnc3CN(C)C(C)C)CC2)cs1		0.785
Cn1ccnc1SCCNC(=O)c1ccc2nc(C3CC3)oc2c1	1.12	
Cc1ccc(-c2cc3c(c(OCC4CCCN(C)C4)c2)OCCN(C(=O)Cc2c(C)noc2C)C3)s1 (stereo unspecified)		0.94
CC1(C)CC(CC(=O)NC2CCCN(CC3CCCCC3)C2)CC(C)(C)N1 (stereo unspecified)	0.985	
COc1ccc(CCN(C)C(=O)CC2(c3ccccc3OC)CC(=O)N(C)C2=O)cc1OC (stereo unspecified)		0.86
COC(=O)C1CCN(CC2(O)CCCN(CC3CCC3)C2=O)CC1 (stereo unspecified)	0.926	
COc1ccc(C(=O)N2CCCC(Nc3ccccc3)C2)cc1C (stereo unspecified)	0.754	
CCOC(=O)C1CCN(C(=O)c2coc(COc3ccccc3)n2)CC1	0.91	
O=C1N(CCCc2ccccc2)CCCC12CCN(c1ccccn1)C2 (stereo unspecified)	0.03	
O=C(NCc1cn2ccsc2n1)c1ccc2oc(Cc3ccccc3)nc2c1		0.94
CC(C)CN1CCC(C2CCN(C(=O)c3ccncc3)C2)CC1 (stereo unspecified)	1	
COc1cccc(CCC2CCCN(C(=O)C3CCOCC3)C2)c1 (stereo unspecified)		0.68
COc1cccc(-c2nn(-c3ccccc3)cc2CNCC2CCCO2)c1 (stereo unspecified)		0.76
CCC(=O)N1CCCC(CCc2cccc(OC)c2)C1 (stereo unspecified)		0.89
COCCc1nc2ccc(C(=O)NCC3(c4ccc(OC)cc4)CCCC3)cc2o1	0.674	

Ordered by molecular weight (descending): three of the compounds above.
SMILES	bacterial growth OD600 (polymyxin B 1 µg/mL)	bacterial growth OD600 (polymyxin B 0.75 µg/mL)
COc1cccc(-c2nn(-c3ccccc3)cc2CNCC2CCCO2)c1 (stereo unspecified)		0.76
Cn1ccnc1SCCNC(=O)c1ccc2nc(C3CC3)oc2c1	1.12	
COc1cccc(CCC2CCCN(C(=O)C3CCOCC3)C2)c1 (stereo unspecified)		0.68

(next part)

SMILES	bacterial growth OD600 (polymyxin B 1 µg/mL)	bacterial growth OD600 (polymyxin B 0.75 µg/mL)
C=CCNC(=O)c1coc(COc2ccc3sc(C)nc3c2)n1	0.921	
CCC1C(=O)N(C)CCN1c1ccc(-c2nc(-c3ccccc3F)no2)cn1 (stereo unspecified)	0.748	
COCC(=O)Nc1cc(C(=O)N(C)Cc2nonc2C)cc2ncn(CCc3ccccc3)c12		0.809
COc1ccc(NC(=O)CCC2CCCN(C(=O)c3ccc(C(C)=O)s3)C2)cc1Cl (stereo unspecified)	0.857	
COC(=O)CCNc1ccc(-c2nc(Cc3ccc(F)cc3)no2)cn1		0.006
O=C(C1=CCCC1)N1CCCC(CNC(=O)C2(c3ccc(Cl)cc3)CC2)C1 (stereo unspecified)	0.853	
O=C(NCc1ccc(Cl)s1)C1CCC(=O)N(CCCN2CCOCC2)C1 (stereo unspecified)	0.797	
CCC(=O)N[C@@H]1c2ccccc2C2(CCN(Cc3c(F)ccc(F)c3F)CC2)[C@H]1OCCOC		0.722
CCOC(=O)C1(C/C=C/c2ccccc2)CCCN(C(=O)c2n[nH]c(=O)c3ccccc23)C1 (stereo unspecified)	0.665	
COCc1nc2cc(NC(=O)Cc3ccccc3)cc(C(=O)N(C)Cc3csc(C)n3)c2n1C		0.855
Cc1ccn(CCC(=O)N2CCCC(N3CCN(c4ccccc4C)CC3)C2)n1 (stereo unspecified)	0.839	
CN(C)CC(C)(O)c1ccc2c(c1)CN(C(=O)CCc1nc3cc(F)ccc3[nH]1)CCO2 (stereo unspecified)		0.855
CC(C)(C)CN1CCC(Oc2ccc(C(=O)N3CCCC(O)C3)cc2Cl)CC1 (stereo unspecified)		0.823
COc1ccc(CNC(=O)CCC2CCCN(Cc3cccs3)C2)c(OC)c1 (stereo unspecified)		0.796
Cc1cccc(CN2CCC(n3nccc3NC(=O)c3ccccc3C)CC2)n1	0.913	

From the supplement of paper PMC12889115
